Data reported in PubChem BioAssay AID493014 (National Center for Advancing Translational Sciences (NCATS), 2011).
Hit rate of the full screen: of about 340,000 compounds, about 170 (0.05%) were called active. Inconclusive means that the source gave no clear call. Such entries were picked first, then a sample of the others. The call rests on the fitted dose curve; in most records, active means well fitted inhibition curve with a large enough effect in the signal ratio, with a control signal flat (not every such curve was filed as active); inconclusive means small, poorly fitted or top-dose-only effect, or effect the other way, or a change in a side signal; inactive means flat fitted curve, though single readings scatter; the % refers to the signal ratio. A potency beside an inconclusive call is a rough fit, not a confirmed value.

Test: qHTS Assay to Find Inhibitors of Chronic Active B-Cell Receptor Signaling;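 on activity change, negative = inhibition: plate controls were basal doxycycline-induced cells for no effect and cells given 10 µM MG132 for full effect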
Details: ABC-DLBCL IkBa-CBG/CBR reporter, luminescence ratio (green luciferase fused to IkBa over red control in TMD8 lymphoma cells), 4 h; activity change, negative = inhibition: at 46.1 µM (top of the series) unless noted
In short: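 Cell line TMD8 (human ABC DLBCL), stably expressing tet-inducible CBG68-IkBa fusion and CBR; IMDM/0.5% FBS; cpd up to 46 uM; dox induction, 4 h, 37C/5% CO2; dual luminescence; green/red ratio; MG132 control.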
Potency means the concentration at half of the fitted maximal effect.

Compound | activity change, negative = inhibition | Potency
O=C(CN1C(=O)NC2(CCCC2)C1=O)OCCOc1cccc(Cl)c1 | inconclusive: -6.99% | 
CCCCn1c(SCC(N)=O)nc2ccc(N3CCOCC3)cc2c1=O | inconclusive: 2.04% | 
O=C(O)c1ccc2nc(-c3ccccc3)sc2c1 |  | inconclusive: 5.17 µM [falling, full curve]
COc1cccc(NC(=O)C(=O)N/N=C(\C)CC(=O)Nc2ccc(NC(C)=O)cc2)c1 |  | inconclusive: 12.6 µM [falling, partial curve]
Cc1ccsc1C(=O)N1CC(=O)Nc2ccccc21 | inactive: 1.46% | 
Cc1ccc(S(=O)(=O)NCc2cn3ccsc3n2)c(C)c1 | inconclusive: -0.323% | 
NS(=O)(=O)c1ccc(N2N=C(c3ccc(Br)cc3)CC2c2ccc(F)cc2)cc1 (stereo unspecified) |  | inconclusive: 32.6 µM [falling, partial curve, poor fit]
O=C(O)CCCCCCCCc1cn(Cc2ccc(C(=O)c3ccccc3)cc2)nn1 |  | inconclusive: 11.2 µM [falling, partial curve]
Cc1cc(C)n(-c2nc(NCC3CCCO3)c3c4c(sc3n2)COC(C)(C)C4)n1 (stereo unspecified) | inconclusive: 3.94% | 
COc1cc2c(cc1NC(=O)c1cccnc1)oc1ccccc12 |  | inconclusive: 18.4 µM [falling, single point]
COc1ccc(CNC(=O)COC(=O)c2ccccc2OCC(=O)Nc2ccc(SC(F)F)cc2)cc1 | inactive: -4.28% | 
Cc1ccc(-n2nnc(-c3nccs3)n2)cc1 |  | inconclusive: 35.5 µM [rising, single point]
O=C(CNC(=O)c1[nH]cnc1C(=O)N[C@@H](Cc1ccccc1)C(=O)OCc1ccccc1)OCc1ccccc1 |  | inconclusive: 25.1 µM [falling, single point]
O=C(O)C1CCN(C(=O)COc2ccc(Br)cc2)CC1 |  | inconclusive: 5.62 µM [falling, partial curve]
COc1ccc(NC(=S)Nc2ncccc2C)c(OC)c1 | inactive: -0.581% | 
O=C(NN=Cc1ccc(N2CCOCC2)s1)c1ccc([N+](=O)[O-])cc1 | inactive: -0.0013% | 
Cc1ccc2c(c1)nnn2C1CCN(CC(=O)NCCc2ccccc2)CC1 | inactive: 12.2% | 
CCCOc1ccc(-c2cn3ccccc3n2)cc1[N+](=O)[O-] | inconclusive: 0.927% | 
CCCc1cc(C(=O)NCCc2ccccc2)no1 |  | inconclusive: 20.6 µM [falling, partial curve]
Cn1c(/C=C(\C#N)C(N)=S)ccc1-c1ccc(Br)cc1 |  | inconclusive: 35.5 µM [falling, single point]
Cc1cn(C)c(CC(=O)Nc2ccc(F)cc2Cl)c1C(=O)O | inconclusive: 8.97% | 
COc1ccc(NC(=O)NNS(=O)(=O)c2ccc(OC)c(OC)c2)c(OC)c1 | inconclusive: -0.546% | 
CCOC(=O)Nc1ccc(C(=O)Oc2ccccc2)c(O)c1 | inconclusive: 2.66% | 
Cc1ccc([N+](=O)[O-])cc1N(CC(=O)Nc1ccc(S(=O)(=O)Nc2cccc(C(F)(F)F)c2)cc1)S(C)(=O)=O | inconclusive: 9.78% | 
O=C(CSc1nnc(CNC(=O)C23CC4CC(CC(C4)C2)C3)n1-c1ccccc1)Nc1ccccc1 | inconclusive: -6.88% | 
O=C(Cn1nc(-c2ccccc2)ccc1=O)Nc1cccc(NC(=O)c2ccccn2)c1 |  | inconclusive: 11.2 µM [falling, partial curve, poor fit]

In the list so far, these have a COOH group.
Compound | activity change, negative = inhibition | Potency
O=C(O)c1ccc2nc(-c3ccccc3)sc2c1 |  | inconclusive: 5.17 µM [falling, full curve]
O=C(O)CCCCCCCCc1cn(Cc2ccc(C(=O)c3ccccc3)cc2)nn1 |  | inconclusive: 11.2 µM [falling, partial curve]
O=C(O)C1CCN(C(=O)COc2ccc(Br)cc2)CC1 |  | inconclusive: 5.62 µM [falling, partial curve]
Cc1cn(C)c(CC(=O)Nc2ccc(F)cc2Cl)c1C(=O)O | inconclusive: 8.97% | 

(listing goes on)

Compound | activity change, negative = inhibition | Potency
CN(Cc1cn(-c2ccccc2)nc1-c1ccc2c(c1)OCO2)Cc1nccn1C |  | inconclusive: 20 µM [falling, partial curve, poor fit]
CN1CCN(Cc2nc3ccccc3c(=O)n2Cc2nc(-c3cccc([N+](=O)[O-])c3)cs2)CC1 |  | inconclusive: 11.2 µM [falling, partial curve, poor fit]
CC(C)C(C)(C#N)NC(=O)CSc1nc2scc(-c3ccc(F)cc3)c2c(=O)n1Cc1ccccc1 (stereo unspecified) | inconclusive: 17.6% | 
CCNS(=O)(=O)c1ccc2c(c1)NCC2 | inactive: 0.499% | 
CC(=O)c1cc(CC=C(C)C)c(O)cc1O | inconclusive: 6.1% | 
Cn1c(=O)n(C)c2cc(NS(=O)(=O)c3ccccc3)ccc21 | inconclusive: -6.86% | 
CC(=O)C1=C(c2cccc([N+](=O)[O-])c2)N(C(C)=O)n2c(nnc2-c2ccc(C)cc2)S1 | inconclusive: 8.29% | 
CCn1c(SCC(=O)N2CCCC2)nc2ccccc2c1=O | inconclusive: -1.13% | 
COCCC(=O)N1CCC(Oc2ccc(C(=O)N3CCCCC3CCO)cc2)CC1 (stereo unspecified) | inconclusive: 1.3% | 
O=C(Cc1ccc(S(=O)(=O)N2CCOCC2)s1)N1CCN(S(=O)(=O)c2ccc(Cl)cc2)CC1 | inactive: 2.65% | 
C[C@H](CO)N1C[C@H](C)[C@@H](CN(C)C(=O)Nc2ccc3c(c2)OCO3)Oc2ccc(NC(=O)CCC(F)(F)F)cc2C1=O | inconclusive: 1.19% | 
COc1ccc(Cl)cc1C(=O)Nc1nc2ccccc2[nH]1 | inconclusive: 225% | 
Cc1ccc(C(=O)COC(=O)c2n[nH]c(=O)c3ccccc23)cc1 | inconclusive: 0.642% | 
O=C(NC(=S)Nc1ccccc1)c1csnn1 |  | inconclusive: 14.1 µM [falling, single point]
CC(C)C(NC(=O)c1ccc2c(c1)OCO2)C(=O)N/N=C/c1cccs1 (stereo unspecified) | inconclusive: -2.89% | 
Cc1occc1C(=O)N/N=C/C=C/c1ccccc1[N+](=O)[O-] |  | inconclusive: 35.5 µM [rising, single point]
CCOC(=O)c1c(S(=O)(=O)N2CCCC(C(=O)N3CCN(c4cc(C)ccc4C)CC3)C2)c(C)n(C)c1C (stereo unspecified) | inactive: -10.9% | 
COc1ccc(C)c2sc(NC(=O)CCS(=O)(=O)c3ccccc3)nc12 |  | inconclusive: 35.5 µM [falling, partial curve, poor fit]
Cc1c(C(=O)N2CCOCC2)sc(NC(=O)Cc2ccccc2)c1C#N | inconclusive: -1.42% | 
C[C@@H]1CN([C@@H](C)CO)C(=O)c2cccc(NC(=O)C3CCCCC3)c2O[C@@H]1CN(C)C(=O)NC1CCCCC1 | inconclusive: -0.562% | 
O=C(CNCCCO)Nc1cc(C(F)(F)F)cc(NC(=O)CNCCCO)c1Cl | inconclusive: 2.99% | 
COc1ccc(N2CCN(c3nc4ccccc4nc3NS(=O)(=O)c3ccccc3)CC2)cc1 | inconclusive: 3.11% | 
Cc1ccc(NC(=O)c2cc(-c3ccccc3)n[nH]2)cc1 |  | inconclusive: 25.1 µM [falling, partial curve]
Cc1cc(C)n2nc(C(=O)NNC(=O)c3ccccc3)nc2n1 | inconclusive: -11.2% | 
O=C(NC(=S)Nc1cccc(NC(=O)c2ccccc2)c1)c1cccc([N+](=O)[O-])c1 |  | inconclusive: 2.91 µM [falling, partial curve, poor fit]
COc1ccc2c(c1)c1ncn(CCN3CCCCC3)c(=O)c1n2C | inconclusive: 3.26% | 

Compound | activity change, negative = inhibition | Potency
O=C(C1CCC1)N1CCN(c2ccc(Cl)cc2)CC1 | inactive: 1.59% | 
CN(Cc1ccc(Cl)s1)C(=O)CCl | inconclusive: -20.9% | 
O=C(COC(=O)CCC(=O)c1cccs1)Nc1cccc(F)c1 | inconclusive: 0.249% | 
O=C(Cn1nc(Cc2ccncc2)c2ccccc2c1=O)N1CCc2ccccc2C1 | inactive: 2.65% | 
CCCCOc1ccc(C(=O)Nc2cccc(C)n2)cc1 | inconclusive: 2% | 
O=C1c2[nH]nc(-c3ccccc3O)c2C(c2cccc(O)c2)N1Cc1ccco1 (stereo unspecified) | inconclusive: 0.13% | 
COc1ccc(OCCn2cc(C=O)c3ccccc32)cc1 | inactive: -19.7% | 
CC1CC(C)(C)Nc2ccc(N=O)cc21 (stereo unspecified) | inconclusive: 20.5% | 
COc1ccc(CSc2nc(C)[nH]c2[N+](=O)[O-])cc1[N+](=O)[O-] | inconclusive: 0.59% | 
COc1ccccc1NC(=O)CSc1nnc(-c2ccc(C)cc2)o1 |  | inconclusive: 22.4 µM [falling, partial curve]
O=C(c1ccc(F)cc1)C1CCN(CCn2c(=O)[nH]c3ccccc3c2=O)CC1 | inactive | 
CCC(C)(C)NC(=O)C(c1ccc(O)cc1)N(Cc1ccco1)C(=O)CCC(=O)Nc1ccccn1 (stereo unspecified) | inconclusive: 1.11% | 
Cc1c(Br)c(=O)oc2c(Br)c(O)c(O)cc12 |  | inconclusive: 20.6 µM [falling, partial curve, poor fit]
COc1ccccc1NS(=O)(=O)c1cc(C(=O)N2CCN(C/C=C/c3ccccc3)CC2)ccc1C | inactive: 2.6% | 
Cc1ccc(NC(=O)COC(=O)c2c(-c3ccccc3)noc2C)c(C)c1 | inconclusive: -0.0145% | 
Cc1ccc(S(=O)(=O)NCCC(=O)OCC(=O)N(Cc2ccccc2)C(C)(C)C)cc1C |  | inconclusive: 29.1 µM [rising, partial curve, poor fit]
Nc1c(C(=O)NCc2ccco2)c2nc3ccccc3nc2n1CCc1ccccc1 |  | inconclusive: 29.1 µM [falling, single point]
COc1ccc(C[C@H]2CN3C(=NC[C@@H]3Cc3ccccc3)N2CCNC(=O)c2ccc(C)c(Br)c2)cc1 |  | inconclusive: 35.5 µM [falling, single point]
CCCCN1C(=O)/C(=C/C=C2/C=Cc3ccccc3N2CC)SC1=S | inconclusive: -2.8% | 
Cc1ccc2sc(N(CCCN(C)C)C(=O)c3ccc(S(=O)(=O)N4CCOCC4)cc3)nc2c1C | inactive: 7.28% | 
CC1=NN2C(=N)/C(=C\c3cc(C)n(-c4ccccc4)c3C)C(=O)N=C2S1 | inactive: 15% | 
COc1ccc(CCCNC(=O)C2CCC(=O)N(CCCN3CCCC3=O)C2)cc1 (stereo unspecified) | inconclusive: -8.58% | 
CCc1cccc(NC(=S)N(CCOC)C(C)c2ccco2)c1 (stereo unspecified) | inactive: -3.27% | 
CC(C)(C)c1ccc(OCCC(=O)OCC(=O)Nc2cccnc2Cl)cc1 | inconclusive: -18.2% | 
